# Laboratory results published in PubChem BioAssay AID493014 (National Center for Advancing Translational Sciences (NCATS), 2011).
# Out of some 340,000 compounds screened, about 170 (0.05%) were called active. Inconclusive means that the source gave no clear call. Such entries were picked first, then a sample of the others. Calls follow the shape of the dose curve; as a rule, active = well fitted inhibition curve with a large enough effect in the signal ratio, with a control signal flat (not every such curve was filed as active); inconclusive = small, poorly fitted or top-dose-only effect, or effect the other way, or a change in a side signal; inactive = flat fitted curve, though single readings scatter; the % refers to the signal ratio. Where the call is inconclusive, the potency comes from a doubtful curve fit.
# Test: qHTS Assay to Find Inhibitors of Chronic Active B-Cell Receptor Signaling;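 as to activity change, negative = inhibition: plate controls were basal doxycycline-induced cells for no effect and cells given 10 µM MG132 for full effect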
# Settings: ABC-DLBCL IkBa-CBG/CBR reporter, luminescence ratio (green luciferase fused to IkBa over red control in TMD8 lymphoma cells), 4 h; activity change, negative = inhibition: at 46.1 µM (top of the series)
# Method in brief: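 Concentration-response series (up to 46 uM) were applied to TMD8 dual-reporter cells for 4 h at 37C with doxycycline. Green/red ratio, after filter-overlap correction, defined %Activity; red signal alone was normalised to basal cells and zero luminescence.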
# Potency is read from the fitted curve at half-maximal effect.
SMILES,"activity change, negative = inhibition",Potency
COC(=O)c1nc(N)sc1-c1ccc(Cl)cc1,inconclusive: -8.84%,
CC(C)CN1C(=O)c2ccccc2C1(O)Cc1ccccc1 (stereo not drawn),inconclusive: 3.15%,
O=C(N/N=C/c1sc2ccccc2c1O)c1ccccc1,,"inconclusive: 25.9 µM [rising, single point]"
CC(C)(C)NC(=O)COC(=O)c1cc(F)c(F)cc1Cl,inactive,
CC1(c2ccc(OC(F)F)cc2)NC(=O)N(CC(=O)c2ccc3c(c2)OCO3)C1=O (stereo not drawn),,"inconclusive: 13 µM [falling, partial curve, poor fit]"
O=C(N=C1N=C2C=CC=CN2Cc2ccccc21)c1ccc(S(=O)(=O)N2CCOCC2)cc1,,"inconclusive: 6.31 µM [activator, partial curve, poor fit]"
Cc1cc(C)nc(NC(=S)Nc2ccc(F)cc2F)c1,inactive,
Fc1ccc(-c2cc(C(F)(F)C(F)F)[nH]n2)cc1,inactive,
COc1cc2c(cc1OC)C(C)N(C(=O)c1cc3c(s1)-c1c(C)cccc1OC3)CC2 (stereo not drawn),,"inconclusive: 23.1 µM [falling, partial curve, poor fit]"
O=c1/c(=C/c2ccco2)sc2n1CN(c1cccc(Br)c1)CN=2,,"inconclusive: 16.4 µM [rising, single point]"
CCOC(=O)C(NC(=O)c1ccccc1Cl)(Nc1sc2c(c1C(N)=O)CCC2)C(F)(F)F (stereo not drawn),,"inconclusive: 29.1 µM [falling, single point]"
NS(=O)(=O)c1ccc(CCNC(=O)c2ccc(C(=O)c3ccccc3)cc2)cc1,inconclusive: -13.8%,
Cn1c(=O)n(C)c2cc(C(=O)c3ccccc3)ccc21,,"inconclusive: 18.4 µM [falling, single point]"
COc1ccc(C)cc1NC(=O)C(CCSC)NS(=O)(=O)c1ccc2c(c1)oc(=O)n2C (stereo not drawn),,"inconclusive: 8.91 µM [falling, partial curve, poor fit]"
CNC(=O)C1CC(=O)N(CCc2ccc(OC)cc2)C(=Nc2ccc(OC)cc2)S1 (stereo not drawn),inconclusive: -8.8%,
COc1cccc(NC(=O)[C@H](CC(C)C)NC(=O)N2CCn3c2nc2ccccc23)c1,,"inconclusive: 11.2 µM [falling, partial curve, poor fit]"
Cc1ccc(NC(=O)COC(=O)C2CC(=O)N(Cc3ccccc3)C2)cc1S(=O)(=O)N(C)C (stereo not drawn),inconclusive: 3.64%,
COc1ccccc1-c1nnc(NC(=O)c2ccc3c(c2)OCO3)s1,inconclusive: -12%,
NC(=O)c1ccsc1NC(=O)COC(=O)c1ccc(Cl)cc1,inconclusive: -17.7%,
O=C(CCC(=O)c1cccs1)NCc1cccc(Cl)c1,inconclusive: 10.5%,
CC(C)CCn1c(-c2nonc2N)nc2ccccc21,,"inconclusive: 9.2 µM [activator, partial curve, poor fit]"
CCC(=O)N(Cc1cc2c(C)cc(C)cc2[nH]c1=O)C1CCCCC1,inconclusive: 5.91%,
Cc1ccc(NC(=O)COC(=O)c2ccc(Br)o2)cc1S(=O)(=O)N1CCCCC1,inactive,
CS(=O)(=O)N(CC(=O)N1CCC(C(N)=O)CC1)Cc1ccc(Cl)c(Cl)c1,inactive,

SMILES,"activity change, negative = inhibition",Potency
O=C(CSc1nnc(CNC(=O)c2ccco2)o1)Nc1ccc(OC(F)(F)F)cc1,inactive,
O=C(NCC1COCCO1)c1cc(COc2c(F)cccc2F)on1 (stereo not drawn),inconclusive: 0.935%,
Cc1ccc(S(=O)(=O)CCC(=O)Nc2ccc3c(c2)OCO3)cc1,inconclusive: 3.01%,
Nc1nn(-c2ccccc2)nc1C(=O)OCc1ccccc1F,inconclusive: 5.12%,
COC(=O)C1=NN(c2ccccc2)C2(S1)S/C(=C\c1ccccc1)C(=O)N2c1ccccc1 (stereo not drawn),inconclusive: 19.9%,
Cc1cccc(N(C)C(=O)C2CCN(S(=O)(=O)c3cccc4nonc34)CC2)c1,inconclusive: -25.7%,
O=C(COC(=O)CNC(=O)c1ccccc1)NCCNC(=O)COC(=O)CNC(=O)c1ccccc1,inconclusive: -0.088%,
COc1ccccc1C1=NC(c2ccccc2)CN1c1ccccc1 (stereo not drawn),inconclusive: 11.7%,
CCn1c(NC(=O)c2ccc(F)cc2)c2ccccc2nc1=O,inconclusive: -0.174%,
CCOCCCNC(=O)c1ccc2c(c1)N(CC)C(=O)c1ccccc1S2=O (stereo not drawn),inconclusive: -1.83%,
CC(C)(C)c1ccc(C(=O)c2cn[nH]c2-c2ccccc2O)cc1,,"inconclusive: 11.2 µM [falling, single point]"
Cc1cc(NC(=O)c2cc(-c3ccccc3C)nc3ccccc23)no1,inconclusive: 5.47%,
COc1ccc2nc(C)cc(Nc3ccc(N4CCN(C)CC4)cc3)c2c1,inconclusive: 20.7%,
COc1cc(-c2nc3cnccn3c2Nc2ccc3c(c2)OCCO3)ccc1O,,"inconclusive: 11.6 µM [falling, partial curve]"
COc1ccc(/C=C/C(=O)Oc2cccc(/C=N/NC(=O)COc3c(C)cccc3C)c2)cc1,inconclusive: 0.203%,
O=C(NN=C1CCCCCCC1)c1ccc(F)cc1,,"inconclusive: 17.8 µM [falling, partial curve]"
Cc1ccc(NC(=O)Nc2ccccc2C(N)=O)cc1,,"inconclusive: 12.6 µM [falling, partial curve]"
CCCn1c(=O)c2ccccc2n2c(SCCOc3ccc(Cl)cc3)nnc12,inactive,
O=C(Nc1c(-c2ccc(F)cc2)nc2ccccn12)c1ccc(F)cc1,inconclusive: -1.81%,
COC(=O)CCCCCCCCC(O)CN(C)C (stereo not drawn),inconclusive: -4.59%,
CCOc1ccc(NC(=O)C(C)Oc2ccccc2C(=O)Nc2ccc(C)c(Cl)c2)cc1 (stereo not drawn),,"inconclusive: 2.24 µM [rising, full curve, poor fit]"
CCN1CCN(S(=O)(=O)c2ccc(Cl)c(C(=O)N(C)Cc3cccs3)c2)CC1,inconclusive: 5.53%,
O=C(Nc1ccc2c(c1)OCO2)C1CCCN(S(=O)(=O)Cc2ccccc2)C1 (stereo not drawn),,"inconclusive: 3.26 µM [falling, single point]"
COc1cccc(C(C(=O)NC2CCCC2)N(C(=O)c2ccco2)c2ccc(-n3cnnn3)c(C)c2)c1OC (stereo not drawn),inactive,

# Random excerpt: three compounds from above, in no set order.
SMILES,"activity change, negative = inhibition",Potency
CCN1CCN(S(=O)(=O)c2ccc(Cl)c(C(=O)N(C)Cc3cccs3)c2)CC1,inconclusive: 5.53%,
CCOc1ccc(NC(=O)C(C)Oc2ccccc2C(=O)Nc2ccc(C)c(Cl)c2)cc1 (stereo not drawn),,"inconclusive: 2.24 µM [rising, full curve, poor fit]"
CC(C)CN1C(=O)c2ccccc2C1(O)Cc1ccccc1 (stereo not drawn),inconclusive: 3.15%,
